# Among all 320,000 compounds or so, about 22,000 (6.9%) were called active. The inconclusive results got no clear call from the source; some entries with a clear call stand among them for comparison. Calls come from the whole dose curve; as a rule, active = well fitted inhibition curve with a large enough effect; inconclusive = small, poorly fitted or top-dose-only effect, or another doubt; inactive = no such curve, though single readings can be large or run the other way. Where the call is inconclusive, the potency comes from a doubtful curve fit.
# Test: Primary qHTS for delayed death inhibitors of the malarial parasite plastid, 96 hour incubation
# Conditions: P. falciparum luciferase reporter growth; series mostly up to 28.7 µM; activity change, negative = inhibition: at the top concentration
# How it was run: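 Two-generation exposure (96 h) targets delayed-death phenotype. Reporter parasites carrying integrated firefly luciferase, in red cells at 2% hematocrit and 0.05% parasitemia final, kept at 37 C, 5% CO2; luminescence loss indicates inhibition.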
# % is set by controls: 0 for no effect and ±100 for the full control effect; potency is the fitted concentration of half-maximal effect.
SMILES,Potency,"activity change, negative = inhibition"
Cc1ccc(C(=O)Oc2ccc(-c3nnco3)cc2)o1,"inconclusive: 0.0104 µM [inhibitor, full curve]",
CC1Cn2c(nc3sc4c(c3c2=O)CCC4)N1CCO (stereo not drawn),"inconclusive: 9.28 µM [inhibitor, partial curve, poor fit]",
COc1ccc(NC(=O)c2ccc(CN3CCN(c4ccccc4)CC3)cc2)cc1OC,"inconclusive: 10.4 µM [inhibitor, single point]",
O=C(Nc1ccc(S(=O)(=O)Nc2nccs2)cc1)c1cc(-c2ccccc2Cl)nc2ccccc12,"inconclusive: 5.22 µM [inhibitor, partial curve, poor fit]",
Cc1cc(C)c2c(N)c(C(=O)c3ccc(Cl)c(Cl)c3)sc2n1,,inactive: -6.58%
O=C(COC(=O)c1ccc(Br)o1)NCCc1ccccc1,"inconclusive: 14.7 µM [inhibitor, single point]",
S=C(Nc1ccccc1)Nc1cc(Cl)ccc1Oc1ccccc1,,inactive: 10.7%
O=C1CCCN1c1ccc(S(=O)(=O)NCc2ccc(F)cc2)cc1,"inconclusive: 3.29 µM [inhibitor, partial curve]",
O=C1[C@@H]2Cc3c([nH]c4ccccc34)C(c3ccc([N+](=O)[O-])cc3)N2C(=O)CN1C1CC1 (stereo partly drawn),"inconclusive: 13.1 µM [inhibitor, single point]",
Cc1c(/C(O)=C2/C(=O)C(=O)N(Cc3cccnc3)C2c2ccccn2)cnn1-c1ccccc1 (stereo not drawn),"inconclusive: 0.465 µM [inhibitor, partial curve, poor fit]",
COC(=O)c1cc(-c2c[nH]c3ccccc23)n[nH]1,,inactive: -10%
COc1ccc(NC(=O)CN2C(=O)NC3(CCCC3)C2=O)cc1S(=O)(=O)N1CCCCC1,"inconclusive: 18.5 µM [inhibitor, single point]",
COC(=O)c1c(NC(=O)c2cccc([N+](=O)[O-])c2)sc(C(N)=O)c1C,,inactive: 4.47%
COc1ccc2nc(SCc3ccccc3C)nc(C)c2c1,"inconclusive: 2.08 µM [inhibitor, partial curve, poor fit]",
Cc1ccc(-c2nc3ccccc3c(=O)n2O)cc1,"inconclusive: 18.5 µM [inhibitor, single point]",
COc1ccc(/C=C/C(=O)NC2CCCCCC2)cc1S(=O)(=O)N1CCOCC1,active: 9.28 µM,
CCN(C(=O)COC(=O)c1cc(Cl)ccc1OC)c1c(N)n(Cc2ccccc2)c(=O)[nH]c1=O,"inconclusive: 10.4 µM [inhibitor, single point]",
COCCNCCCOc1ccc(C)cc1Br,,inactive: -0.798%
O=C(O)c1cccc(S(=O)(=O)N2CCN(C(c3ccccc3)c3ccccc3)CC2)c1,active: 13.1 µM,
COc1ccc(N2CCN(C(=O)Cn3c(=O)[nH]c4ccccc4c3=O)CC2)cc1,active: 10.4 µM,
COc1cc(C(c2nnnn2C2CCCC2)N2CCc3ccccc3C2)ccc1O (stereo not drawn),"inconclusive: 0.0029 µM [inhibitor, full curve, poor fit]",
O=C(Cc1csc(Nc2nc(=S)[nH]c3ccccc23)n1)NCc1cccc(Cl)c1,"inconclusive: 18.5 µM [inhibitor, partial curve, poor fit]",
O=C(COc1ccc(C(=O)c2ccccc2)cc1)NCC(=O)Nc1ccccc1Br,,inactive: -12.3%

# An excerpt from above in order of SMILES length, ascending:
SMILES,Potency,"activity change, negative = inhibition"
O=C(COc1ccc(C(=O)c2ccccc2)cc1)NCC(=O)Nc1ccccc1Br,,inactive: -12.3%
COc1ccc(/C=C/C(=O)NC2CCCCCC2)cc1S(=O)(=O)N1CCOCC1,active: 9.28 µM,
O=C(Cc1csc(Nc2nc(=S)[nH]c3ccccc23)n1)NCc1cccc(Cl)c1,"inconclusive: 18.5 µM [inhibitor, partial curve, poor fit]",

# Additional compounds.

SMILES,Potency,"activity change, negative = inhibition"
O=C(NCCCc1ccccc1)N1CCOCC1,,inactive: 2.03%
C/C(=N\NC(=O)C1(C)CC1(Br)Br)c1cccc(NC(=O)C(C)(C)C)c1 (stereo not drawn),"inconclusive: 16.5 µM [inhibitor, single point]",
O=C(NC1CC1)C1CC(=O)N(c2cccc(Cl)c2)C1 (stereo not drawn),"inconclusive: 16.5 µM [inhibitor, single point]",
O=C(CN1CCN(c2ccccc2F)CC1)c1ccc(O)c(O)c1,,inactive: -8.52%
O=c1ccc2ccc(OCc3nnc(-c4ccccc4Br)o3)cc2o1,"inconclusive: 18.5 µM [inhibitor, single point]",
COc1ccc(NC(=O)CNC(=O)Cn2c(C)cc3ccccc3c2=O)cc1OC,"inconclusive: 18.5 µM [inhibitor, single point]",
CCc1nc2ccccc2c(NC(=O)CN2CC(C)CC(C)C2)c1C (stereo not drawn),active: 9.28 µM,
CN(C)c1ccc(CNC(=O)CCS(=O)(=O)c2ccc3c(c2)oc(=O)n3C)cc1,,inactive: 6.63%
N=c1oc2ccc(Br)cc2cc1C(=O)NCc1ccccc1,"inconclusive: 11.7 µM [inhibitor, partial curve, poor fit]",
O=C1c2ccccc2C(=O)N1SC1CCCCC1,,inactive: 102%
COc1ccc(NS(=O)(=O)c2cc(NC(=O)c3nc4nc(C)cc(C)n4n3)ccc2C)cc1,"inconclusive: 7.38 µM [inhibitor, partial curve]",
O=C(/C=C/c1cccs1)N1CCC2(CC1)Oc1ccc(F)cc1C(=O)C21CC(c2ccc(Cl)cc2)=NO1 (stereo not drawn),active: 1.85 µM,
Cc1cccc(N2CCN(C(=O)C3COc4ccccc4O3)CC2)c1C (stereo not drawn),"inconclusive: 2.94 µM [inhibitor, single point]",
COC(=O)C1=C(c2cccc(OCc3ccccc3)c2)C[C@@H]2CC[C@H]1N2C(=O)NCc1cccc(OC)c1,active: 4.15 µM,
CC/C(=N\Nc1ccccc1)c1c(O)n(C)c(=O)n(C)c1=O,"inconclusive: 2.94 µM [inhibitor, single point]",
Cc1c(C(=O)NCc2ccco2)sc2nc(-c3ccccc3)cn12,"inconclusive: 18.5 µM [inhibitor, single point]",
CC(=O)Nc1ccc(N(C(=O)c2ccco2)C(C(=O)NC2CCCC2)c2cccs2)cc1 (stereo not drawn),"inconclusive: 1.65 µM [inhibitor, full curve]",
CCOC(=O)COc1coc(CN2CCN(c3ccccc3)CC2)cc1=O,"inconclusive: 18.5 µM [inhibitor, single point]",
Cc1ccc(/C=C/C(=O)NC(=S)N2CCN(C)CC2)cc1,"inconclusive: 18.5 µM [inhibitor, single point]",
CC(CCc1ccco1)NC(=O)Cn1ncc2c(=O)oc3ccccc3c21 (stereo not drawn),"inconclusive: 18.5 µM [inhibitor, single point]",
Cc1ccc(S(=O)(=O)N2CCC(C(=O)Nc3ccc4c(c3)OCO4)CC2)cc1,"inconclusive: 13.1 µM [inhibitor, single point]",
O=C(NC(=S)Nc1ccccc1N1CCOCC1)c1ccc(-c2ccccc2F)o1,active: 14.7 µM,
COc1cccc(-c2nn3c(-c4cc(C)[nH]n4)nnc3s2)c1,active: 10.4 µM,

SMILES,Potency,"activity change, negative = inhibition"
Cc1ccccc1C(=O)NC1CCN(CC(=O)Nc2nccs2)CC1,"inconclusive: 0.0041 µM [inhibitor, full curve, poor fit]",
O=C(Cc1ccc(Br)cc1)Nc1ccccc1N1CCCC1,"inconclusive: 4.15 µM [inhibitor, single point]",
Cn1c(SCc2ccc(F)cc2)nnc1-c1ccccn1,,inactive: 205%
Cc1cc(NS(=O)(=O)c2ccccc2)cc(Cl)c1O,"inconclusive: 9.28 µM [inhibitor, single point]",
CN(C)c1ccc(CNn2cnnc2)cc1,"inconclusive: 13.1 µM [inhibitor, single point]",
COc1ccc(C(=O)NC(=S)NCc2ccco2)cc1Br,"inconclusive: 10.4 µM [inhibitor, single point]",
O=C(Nc1ccccn1)c1nc(-c2ccccc2)n(-c2ccccc2)n1,"inconclusive: 16.5 µM [inhibitor, single point]",
O=C(NCCN1CCOCC1)c1ccc2c(c1)ncn2C1CCCC1,"inconclusive: 0.0029 µM [inhibitor, full curve, poor fit]",
CCN(CC)CCN(C(=O)c1ccc([N+](=O)[O-])cc1)c1nc2c(OC)cccc2s1,"inconclusive: 4.15 µM [inhibitor, partial curve, poor fit]",
CCOC(=O)c1ccc(NC(=O)c2nc[nH]c2C(=O)N(C)Cc2ccccc2)cc1,"inconclusive: 18.5 µM [inhibitor, single point]",
CCOc1ccc(C(=O)NCC(=O)N2CCCC2)cc1,,inactive: 49.1%
Cc1cc(=O)n2nc(N3CCC(C(=O)NCc4ccc(F)cc4)CC3)sc2n1,"inconclusive: 18.5 µM [inhibitor, single point]",
CCCC1(C(=O)OCC)NC(c2ccco2)C2C(=O)N(C)C(=O)C21 (stereo not drawn),"inconclusive: 0.928 µM [inhibitor, full curve, poor fit]",
CC1(C)Cc2cccc(OCC(=O)N3CCN(c4cccc(C(F)(F)F)c4)CC3)c2O1,"inconclusive: 11.7 µM [inhibitor, single point]",
CCCOC(=O)c1ccc(NC(=O)C(CC)CC)cc1,,inactive: 1.53%
CCN(CC)CCNC(=O)c1ccc(NC(=O)c2cc(S(=O)(=O)N3CCCCC3)ccc2C)cc1,"inconclusive: 11.7 µM [inhibitor, single point]",
Cc1ccc(CNC(=O)C2=CCN(S(=O)(=O)c3ccc(C)cc3)CC2)cc1,"inconclusive: 4.65 µM [inhibitor, partial curve, poor fit]",
Clc1ccc(C(c2ccccc2)c2ncc[nH]2)cc1 (stereo not drawn),"inconclusive: 18.5 µM [inhibitor, single point]",
Cc1cc(NC(=O)c2ccc(NC(=O)C3CCCO3)cc2)ccc1Br (stereo not drawn),,inactive: 1.04%
Cc1ccc(CN2CCN(/N=C/c3ccc(C(=O)O)cc3)CC2)c(C)c1,"inconclusive: 1.85 µM [inhibitor, partial curve, poor fit]",
CCc1nc2cc3sc(CC)nc3cc2s1,"inconclusive: 18.5 µM [inhibitor, single point]",
CC(C)CC(=O)N1CCN(S(=O)(=O)c2ccc(Cl)cc2)CC1,"inconclusive: 10.4 µM [inhibitor, partial curve, poor fit]",

# Entries from the list above with a nitro group on carbon, in the order listed:
SMILES,Potency,"activity change, negative = inhibition"
O=C1[C@@H]2Cc3c([nH]c4ccccc34)C(c3ccc([N+](=O)[O-])cc3)N2C(=O)CN1C1CC1 (stereo partly drawn),"inconclusive: 13.1 µM [inhibitor, single point]",
COC(=O)c1c(NC(=O)c2cccc([N+](=O)[O-])c2)sc(C(N)=O)c1C,,inactive: 4.47%
CCN(CC)CCN(C(=O)c1ccc([N+](=O)[O-])cc1)c1nc2c(OC)cccc2s1,"inconclusive: 4.15 µM [inhibitor, partial curve, poor fit]",

# — PubChem BioAssay AID504834 (National Center for Advancing Translational Sciences (NCATS), 2011)
